Reference: publication PMC12040169 (PLOS Biology, 2025)
The list shows a part of the results.

system: T1, CTL2-GFP (C. trachomatis L2/434/Bu, GFP-expressing); design: species or system HeLa; Intracellular C. trachomatis growth in HeLa cells, bulk GFP fluorescence relative to DMSO; conditions: bulk GFP, single well; 28.5 h, 10 µM; inhibitor
T1 construct: L2/434/Bu, GFP-expressing

Compound	% of control remaining [%]
CC(C)OCc1ccc(C(=O)N2CCC(C(=O)O)CC2)cc1 [CBK297141]	147.53
N#CCCN(C(=O)NCc1ccc2c(c1)OCO2)C1CCCCC1 [CBK156351]	139.701
Cc1cc(C[C@@H]2CCC[C@H]2NCc2c(C)nn(C(C)C)c2C)on1 [CBK285453]	111.798
CN1CCN(c2nc(-c3ccccc3CO)cn3ccnc23)CC1 [CBK066347]	95.9694
COc1ccc(F)c(CN(CC(C)(C)CN)C(=O)Nc2ccccc2C(C)(C)C)c1 [CBK002478C]	130.62
c1ccc2c(N3CCCCC3)cnnc2c1 [CBK066897]	83.9209
CC(C)C1c2cccn2CCN1S(=O)(=O)c1ccc2[nH]c(=O)[nH]c(=O)c2c1 (centres unmarked) [CBK286391]	123.275
O=C(Nc1cccnc1)c1cc2cc(OC(F)(F)F)ccc2[nH]1 [CBK107313]	100
O=C(c1cccs1)N1C[C@H](c2ccc(F)cc2)[C@H]2CN(Cc3ccccc3)CC[C@H]21 [CBK285544]	86.088
Cc1ccccc1NC(=O)CC(C(=O)O)N1CCOCC1 (centres unmarked) [CBK266969]	139.649
CCN1C(=O)C2(CC(=O)N(CC3CCCCC3)C2=O)c2cc(C)ccc21 (centres unmarked) [CBK075216]	119.879
Cc1nc(C)c(CC(=O)Nc2cccc(CN3CCCC3)c2)s1 [CBK281426]	87.9945
CSc1ncc(Cl)c(C(=O)NCCc2ccc(S(N)(=O)=O)cc2)n1 [CBK268679]	124.207
CCc1ccc(CNC(=O)Cn2nnc(-c3ccc(CNC4CCC4)cc3)n2)cc1 [CBK155006T]	131.27
O=S(=O)(Nc1ccc2[nH]ncc2c1)c1ccc(Oc2ccccc2)cc1 [CBK062522]	96.1305
O=C(c1nccs1)C1CCN(C(=O)CC2CCCC2)CC1 [CBK284207]	73.9656
O=c1[nH][nH]c2nc(O)cc(C(F)(F)F)c12 [CBK027081]	116.672
N#Cc1ccc(CSc2cccc(F)c2)cc1 [CBK002918]	79.9575
Cc1cc(-n2cccn2)ccc1CN1CCCCC1CN1CCOCC1 (centres unmarked) [CBK307442]	106.854
Cc1ccc(-c2n[nH]c(=S)n2CCC(=O)NCc2ccc(-c3csc(C)n3)s2)cc1 [CBK297924]	120.716
O=C(c1ccc(F)cc1)C1CCN(CC(O)COc2cccc3c2CCCC3)CC1 (centres unmarked) [CBK003583]	122.333
O=C(O)CCC(=O)Nc1ccc(-c2nc3ccccc3o2)cc1 [CBK261330]	112.5
O=C(c1cccs1)N1CCCN(Cc2cn3ccccc3n2)CC1 [CBK305304]	108.737
Fc1cccc(-c2nc3cnccn3c2NCc2cccs2)c1 [CBK282363]	151.16
NC1=NN2C(=C(c3ccc(O)c(C(=O)O)c3)NN2c2ccccc2)N1 [CBK025631]	97.9187

Compound	% of control remaining [%]
CC(C)(C)OC(=O)N1CCC2(CC1)NC(=O)c1cc(-c3cccc(S(C)(=O)=O)c3)ccc1O2 [CBK131967]	122.924
CCC(=O)Nc1ccc(-c2nc3ccccc3[nH]2)cc1 [CBK287561]	131.516
O=C(c1ccco1)N1CCC(Cn2cncn2)(C2CCCCC2)CC1 [CBK136811]	134.205
Cn1c(=O)c2c(nc(CN3CCCCC3)n2CCCc2ccccc2)n(C)c1=O [CBK269521]	136.129
Cc1[nH]c(=S)[nH]c(=O)c1Cc1cccc2ccccc12 [CBK115563]	92.3455
O=C(NCc1cccs1)c1cnoc1-c1ccc([N+](=O)[O-])cc1 [CBK153845]	100
C=CCn1c(Cc2csc(NC(=O)c3cccc(Cl)c3)n2)n[nH]c1=S [CBK295314]	137.857
CCCCc1nc(CS(=O)(=O)C(C)c2nc(C(C)C)no2)cs1 (centres unmarked) [CBK305707]	100.621
COc1ccccc1CN(C(=O)Nc1ccc(S(C)(=O)=O)cc1)C1CC1 [CBK305787]	109.947
CS(=O)(=O)c1cccc(-c2cnc(NCC3CC3)c(C(=O)Nc3ccc4c(c3)OCO4)c2)c1 [CBK076362]	94.0669
CCOC(=O)C1CCCN(C(=O)Cn2ncc(Cl)c(Cl)c2=O)C1 (centres unmarked) [CBK305573]	78.8542
O=S(=O)(c1cccc(F)c1)N1CCC(Cc2ccccc2)CC1 [CBK044828]	108.325
COC(=O)c1ccccc1NC(=O)CNS(=O)(=O)c1ccc(C)cc1 [CBK266000]	190.925
COc1ccc(CC(=O)NC(CCSC)c2nc3ccccc3[nH]2)cc1 (centres unmarked) [CBK306050]	123.635
Cc1cc(C)n(C(C)CNC(=O)c2cc(C3CC3)on2)n1 (centres unmarked) [CBK283243]	121.322
CN(C)CCNC(=O)c1ccc(-c2ccccc2S(=O)(=O)Nc2ccc(C(=O)O)c(O)c2)cc1 [CBK174050]	129.909
COc1cc(/C=C2\SC(=S)N(CC(=O)NNC(=O)c3ccccc3O)C2=O)ccc1O [CBK261301]	111.473
O=C(O)c1nn(-c2ccccc2)c2cc([N+](=O)[O-])ccc12 [CBK006532]	97.4702
Cc1ccc(S(=O)(=O)NCCSCc2ccc(Cl)cc2)cc1[N+](=O)[O-] [CBK264056]	93.7905
CCN(CC)S(=O)(=O)c1csc(C(=O)Nc2cccc([N+](=O)[O-])c2)c1 [CBK264505]	100
CC(NC(=O)CCc1cn(C)c2ccccc12)c1ccccn1 (centres unmarked) [CBK281889]	110.325
CN(C)c1ccc(-c2noc([C@@H]3CCCN3C)n2)cn1 [CBK288902]	122.282
Cc1cc(=O)oc2cc(OC(=O)C(Cc3ccccc3)N3C(=O)c4ccccc4C3=O)ccc12 (centres unmarked) [CBK033943]	100
COc1ccc(C(NC(=O)Cn2cccnc2=O)C2CC(O)C2)cn1 (centres unmarked) [CBK307527]	146.002
Cc1cccc(-n2c(C#N)c(O)c3ccccc32)c1C [CBK115319]	83.7864

Some of the entries above, reformatted:
Compound,% of control remaining [%]
COc1cc(/C=C2\SC(=S)N(CC(=O)NNC(=O)c3ccccc3O)C2=O)ccc1O [CBK261301],111.473
O=C(O)c1nn(-c2ccccc2)c2cc([N+](=O)[O-])ccc12 [CBK006532],97.4702
Cc1ccc(S(=O)(=O)NCCSCc2ccc(Cl)cc2)cc1[N+](=O)[O-] [CBK264056],93.7905
CCN(CC)S(=O)(=O)c1csc(C(=O)Nc2cccc([N+](=O)[O-])c2)c1 [CBK264505],100
